The data set in a line: general procedure: solution-phase peptide synthesis; N-hydroxysuccinimide active esters (DCCI); pentafluorophenyl and p-nitrophenyl e.

The source of these data is patent US5486597A (James Black Foundation Limited, priority 1990, dated 1996).

Consider “N-t-Butyloxycarbonyl-L-tryptophyl-L-2-methyl-3-(2-naphthyl)alanyl-L-aspartyl-L-phenylalaninamide”, for which, where the note is “late stage modification step”, the step yield is recorded as 88%. The substance “N-t-Butyloxycarbonyl-L-tryptophyl-L-2-methyl-3-(2-naphthyl)alanyl-β-O-benzyl-L-aspartyl-L-phenylalaninamide” came in with a step yield (coupling step) of 77%. As to “N-t-Butyloxycarbonyl-L-tryptophyl-L-3-(2-naphthyl)alanyl-L-aspartyl-L-phenylalaninamide”, the step yield is listed as 90% (late stage modification step, run 1) and 64% (late stage modification step, run 2). On to “N-t-Butyloxycarbonyl-L-tryptophyl-L-3-(2-naphthyl)alanyl-β-O-benzyl-L-aspartyl-L-phenylalaninamide”, for which the step yield runs as follows: (coupling step, run 1) 84%; (coupling step, run 2) 65%.
